Reference: publication PMC9478928
These are yes or no findings as the source states them, for the method shown. In cells and extracts the contact can be indirect. Here binding means that the protein was enriched with, or labelled near, the bait; the list need not be complete. For some assays here: A no says only that the protein was not detected with the bait. Tags and fused reporters may be left off the sequences shown.

Sequences of proteins named here, by UniProt entry; tags and fusion partners are left off.
UniProt P35189: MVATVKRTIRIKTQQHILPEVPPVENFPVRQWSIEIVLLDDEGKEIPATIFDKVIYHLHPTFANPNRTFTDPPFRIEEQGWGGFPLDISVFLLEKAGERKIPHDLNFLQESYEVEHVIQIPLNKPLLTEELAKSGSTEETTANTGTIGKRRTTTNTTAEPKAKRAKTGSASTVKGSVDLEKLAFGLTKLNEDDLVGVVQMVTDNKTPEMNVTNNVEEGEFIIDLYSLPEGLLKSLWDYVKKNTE

Assays:
[1] = molecular target: T1, Taf2, full-length, C-terminally 3xFlag-tagged (S. cerevisiae) (UniProt P23255); test: affinity purification with mass spectrometry; Taf2-Flag and Taf2ΔC1261-Flag from yeast extract on anti-FLAG M2 agarose; benzonase 50 U/ml; 250 mM KCl; washed six times; triplicates against a nontagged strain
T1 sequence: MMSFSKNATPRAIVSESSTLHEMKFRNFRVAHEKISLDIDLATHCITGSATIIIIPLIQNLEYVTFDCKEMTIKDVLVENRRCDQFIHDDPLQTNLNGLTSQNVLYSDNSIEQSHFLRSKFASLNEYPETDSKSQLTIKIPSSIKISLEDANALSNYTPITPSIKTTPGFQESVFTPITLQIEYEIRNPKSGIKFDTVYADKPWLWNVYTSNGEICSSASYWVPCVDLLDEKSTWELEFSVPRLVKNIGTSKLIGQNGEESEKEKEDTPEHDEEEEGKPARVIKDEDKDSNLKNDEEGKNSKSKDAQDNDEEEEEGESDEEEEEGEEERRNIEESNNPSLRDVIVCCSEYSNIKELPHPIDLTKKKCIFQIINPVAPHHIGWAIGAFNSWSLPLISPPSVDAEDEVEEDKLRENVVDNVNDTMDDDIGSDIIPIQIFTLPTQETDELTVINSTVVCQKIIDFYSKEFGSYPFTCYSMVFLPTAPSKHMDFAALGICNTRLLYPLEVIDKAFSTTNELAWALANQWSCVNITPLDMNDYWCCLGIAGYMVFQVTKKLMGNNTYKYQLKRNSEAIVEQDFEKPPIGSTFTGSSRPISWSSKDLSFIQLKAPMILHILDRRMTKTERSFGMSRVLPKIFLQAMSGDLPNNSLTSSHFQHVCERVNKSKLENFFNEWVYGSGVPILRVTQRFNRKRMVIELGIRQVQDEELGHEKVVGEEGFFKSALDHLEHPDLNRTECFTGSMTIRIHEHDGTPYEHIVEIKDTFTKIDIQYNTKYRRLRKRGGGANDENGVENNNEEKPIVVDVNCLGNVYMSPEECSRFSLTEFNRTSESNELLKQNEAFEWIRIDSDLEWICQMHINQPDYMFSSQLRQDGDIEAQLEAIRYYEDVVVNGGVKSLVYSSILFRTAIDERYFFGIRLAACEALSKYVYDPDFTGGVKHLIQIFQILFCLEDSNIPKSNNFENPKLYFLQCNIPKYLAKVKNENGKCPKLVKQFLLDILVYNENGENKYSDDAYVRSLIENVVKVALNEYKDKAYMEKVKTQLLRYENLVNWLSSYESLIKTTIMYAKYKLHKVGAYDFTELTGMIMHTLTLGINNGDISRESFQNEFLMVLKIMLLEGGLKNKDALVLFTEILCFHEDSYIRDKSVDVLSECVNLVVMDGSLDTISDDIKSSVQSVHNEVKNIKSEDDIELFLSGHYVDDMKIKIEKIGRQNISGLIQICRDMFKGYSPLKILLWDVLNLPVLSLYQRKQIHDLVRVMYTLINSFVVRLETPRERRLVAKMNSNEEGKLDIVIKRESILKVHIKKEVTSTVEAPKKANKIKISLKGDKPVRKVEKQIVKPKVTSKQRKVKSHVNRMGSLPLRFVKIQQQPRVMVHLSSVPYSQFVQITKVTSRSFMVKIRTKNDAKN

[2] = molecular target: T2, Taf2ΔC1261, C-terminally 3xFlag-tagged (amino acids 1-1260) (S. cerevisiae) (UniProt P23255); test: as above
T2 sequence: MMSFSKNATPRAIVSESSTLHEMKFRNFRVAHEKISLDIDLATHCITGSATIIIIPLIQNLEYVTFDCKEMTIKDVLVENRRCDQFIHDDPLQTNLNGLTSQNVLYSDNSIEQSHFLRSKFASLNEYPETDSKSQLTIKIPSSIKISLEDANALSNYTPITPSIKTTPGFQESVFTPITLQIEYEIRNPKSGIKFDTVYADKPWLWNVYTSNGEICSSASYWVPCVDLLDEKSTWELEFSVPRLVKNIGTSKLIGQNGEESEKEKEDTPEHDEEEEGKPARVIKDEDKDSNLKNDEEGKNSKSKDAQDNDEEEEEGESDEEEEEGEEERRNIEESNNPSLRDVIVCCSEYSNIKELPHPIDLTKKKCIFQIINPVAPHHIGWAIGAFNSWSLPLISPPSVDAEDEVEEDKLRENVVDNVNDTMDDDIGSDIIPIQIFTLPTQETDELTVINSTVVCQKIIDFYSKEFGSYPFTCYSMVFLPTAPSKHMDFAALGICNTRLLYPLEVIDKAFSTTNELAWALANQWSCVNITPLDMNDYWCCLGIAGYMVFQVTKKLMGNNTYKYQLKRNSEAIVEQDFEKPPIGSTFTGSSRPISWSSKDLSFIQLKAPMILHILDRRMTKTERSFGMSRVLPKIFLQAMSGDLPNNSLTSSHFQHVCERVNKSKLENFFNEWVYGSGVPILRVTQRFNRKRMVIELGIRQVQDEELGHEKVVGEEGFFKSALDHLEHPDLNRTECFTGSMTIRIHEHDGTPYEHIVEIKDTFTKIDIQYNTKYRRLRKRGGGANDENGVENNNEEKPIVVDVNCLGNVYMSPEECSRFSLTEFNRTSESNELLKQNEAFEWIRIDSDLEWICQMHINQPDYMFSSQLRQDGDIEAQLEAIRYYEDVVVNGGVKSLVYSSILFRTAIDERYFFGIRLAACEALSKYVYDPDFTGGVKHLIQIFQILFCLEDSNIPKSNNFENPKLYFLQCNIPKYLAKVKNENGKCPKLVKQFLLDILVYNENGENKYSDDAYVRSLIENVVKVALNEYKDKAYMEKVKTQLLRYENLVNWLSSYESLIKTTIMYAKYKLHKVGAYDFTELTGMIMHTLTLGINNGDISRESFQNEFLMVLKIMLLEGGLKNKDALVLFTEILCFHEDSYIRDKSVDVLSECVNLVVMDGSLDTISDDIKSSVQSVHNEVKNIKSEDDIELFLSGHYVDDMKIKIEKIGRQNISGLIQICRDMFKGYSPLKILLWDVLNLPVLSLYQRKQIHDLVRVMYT

binding [1]: binds
binding [2]: no binding
Substance: Taf14 (endogenous, untagged) (from UniProt P35189 1-244)
